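Luminescence from an EWS-FLI1 target-promoter (NR0B1) reporter, set against a CMV-promoter reporter, two days after silencing single genes in TC32 Ewing sarcoma cells. Each siRNA was applied at 20 nM. A z-score of the log NR0B1-over-CMV signal, less the median of siRNAs with the same seed; more negative means a stronger specific loss of the NR0B1 reporter.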

The strongest results of the screen are mostly left out here. Sequences are the guide (antisense) strand, without overhang.

| strand | target gene | seed-corrected z-score |
|---|---|---|
| `UAUGUUCAAUGAGUCUUCC` | CASP1 | -1.034 |
| `UUUGUGGUCCGCUUGACUG` | CHRM2 | -0.3122 |
| `UUUCUAUUUACAAGUGUCC` | SIX1 | -0.7309 |
| `UUUGUUGUAGAAACGCAGC` | SLC37A3 | -0.4732 |
| `UAUUUACAAAGGGAUUCCA` | FAM90A1 | -0.2081 |
| `UUCCGACUCAUAAAGAGUG` | SEC23IP | 0.08341 |
| `UCGGCUUCCAGAUCGAUCU` | BTBD6 | 0.6459 |
| `UUGGUGAACAGGUACACGG` | CACNG7 | 1.155 |
| `UAAGAGGUGAAGGCAGCCG` | SLC25A45 | -0.4187 |
| `UAACAGGAGAUACGGUUGG` | LOC646034 | -0.3074 |
| `UGCGAAAUGUGCAAGUUCC` | C8orf59 | 0.4794 |
| `UCACAUGAGACCUGAGUCC` | KRTAP5-7 | 0.6031 |
| `UCUAUGCUCAGUGACUGUC` | PKD1L2 | 0.3356 |
| `ACAAUAACCAUAACCCUGG` | PTCHD3 | 0.2213 |
| `UAUGGAUUGGAAGCAAGUG` | BRCC3 | -0.03676 |
| `ACAUGGACCAGUGAUGUUG` | OR5AS1 | -0.4477 |
| `UUUACUACAUGAUGCAUUC` | ZSCAN18 | 0.262 |
| `UUUGUGAAGCUUCCAGUGC` | LRRC41 | -0.152 |
| `AAAAUGGUUGGAGUCUUGG` | IKZF4 | -0.009163 |
| `UUCAUGUGAUAGUCAUUCC` | RWDD2A | 0.8162 |
| `UCUAUGUUAGCAGCAAGGG` | C2orf47 | 1.149 |
| `UUUGCACUCACUGCUGUCA` | ESM1 | 0.2418 |
| `UUUGCUUUCGUGUUCCUCU` | GOLGA8A | 0.01302 |
| `AAAGGUCACAUUGGGCAGG` | MRC2 | 1.018 |
| `ACAUUGAGAAGCUCAGUCC` | FOLR1 | 2.552 |
| `UUACGUUUUGUUUCCGGAC` | MTF1 | 0.03776 |
| `UAUAAUCCAAGCAAUCAGU` | OTX2 | -0.579 |
| `UUGGGUGUAGACUUUAAGG` | TMEM123 | -0.5051 |
| `UCCUUGUAGAUGUAAAGGA` | LCN15 | 0.9764 |
| `UAGGAUAUUGUUCAUCGCC` | FAP | -0.4545 |
| `UUCUCAUCAAAUGAAGUCC` | ANKFY1 | -0.3334 |
| `UCCGUGUUCUCCAGUACCG` | MFI2 | -0.6805 |
| `UUUGGUGUCACAGUCUUGG` | SCUBE3 | 1.201 |
| `AUUCAUAUCUCCAUAAGCC` | PPFIA2 | 0.2958 |
| `AAUGGUCACCACACCAUCC` | KCNIP2 | 0.635 |
| `UUAUCUUCUUCCUAAAGCC` | GOLGA3 | 1.679 |
| `UGGUUAUUCAGGAACUUCA` | NR5A1 | -0.2104 |
| `UUAACUCCCACUUUUCACC` | TARS | 0.3296 |
| `UGAUCUUCCGUCCUCACUC` | APH1A | -0.2748 |
| `AAUGCUAACUGAGCGAGCC` | RITA1 | -0.3213 |
| `UCGGGUAAAAGUUCCCACG` | ATP9A | -0.6851 |
| `UACGUCAAGAAAUCUCUGC` | ZFPM2 | 0.2555 |
| `UGACCCUUUAAGUUUGACG` | RCC2P7 | -0.4893 |
| `UACGUAAAGCUAAGGAUGC` | ANK3 | 0.2138 |
| `UUCAGUUUCCUUAAACUUG` | CRY2 | 0.4573 |
| `UCUGGGUUAAAAUUAGGCA` | TPPP3 | 1.345 |

Some entries from above, unchanged:

strand	target gene	seed-corrected z-score
UUUGCACUCACUGCUGUCA	ESM1	0.2418
UCCUUGUAGAUGUAAAGGA	LCN15	0.9764
UUUGUUGUAGAAACGCAGC	SLC37A3	-0.4732

The results are deposited in PubChem (AID1159506; NCATS, 2015).